From PubChem BioAssay AID328 (DTP/NCI, 2004)
The list shows only some results of the screen, not a fair sample: it is rich in T/C values a quarter to a half above the control, in often repeated tests (any T/C) and in doses without a T/C. Other doses and runs of a compound stand elsewhere. T/C gives the treated animals as a percentage of the vehicle group. Some entries give survivors of the animals treated and no T/C: the source files T/C as zero there, which appears to mark a toxic dose or a test without result, not a measured value. Some doses without a T/C left all or most animals alive at the check, yet need not have been tolerated: the source hardly ever lists a survival T/C far under the control, and the zero likely stands for such cases as well. Counts of survivors are from the toxicity check (mostly the fifth day) where no day follows; animals may have died later. Schedules are NCI's codes, read here as Q, the interval in days (D) or hours (H), X, the number of doses. Where survival is the endpoint, this PubChem deposit counts one and a half times the control or more as active, and values a quarter to a half above the control carry no call in these data; other NCI protocols may use other cut-offs. Some T/C values are followed by the survivors on the day toxicity was checked, most often the fifth; where none is given, no animal had died by that day. Some entries were tested several times; the values are given in rising order.

Tested on: BDF1 mice, P388 leukemia ip, median survival T/C
Assay: NCI In Vivo Anticancer Drug Screen. Data for tumor model P388 Leukemia (intraperitoneal) in B6D2F1 (BDF1) mice
Conditions: T/C endpoint: median survival time, higher T/C = longer survival
How it was run: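 Vehicle-dosed animals serve as the reference; survival of compound-dosed, tumour-implanted mice is divided by it.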

[1] = dose: 100.0 mg/kg/injection, schedule: Q01DX009 (ip), vehicle: saline
[2] = dose: 200.0 mg/kg/injection, schedule: Q01DX009 (ip), vehicle: saline
[3] = dose: 100.0 mg/kg/injection, schedule: Q01DX009 (ip), vehicle: Klucel (hydroxypropylcellulose) (HPC)
[4] = dose: 200.0 mg/kg/injection, schedule: Q01DX009 (ip), vehicle: Klucel (hydroxypropylcellulose) (HPC)
[5] = dose: 200.0 mg/kg/injection, schedule: Q01DX009 (ip), vehicle: saline with Tween-80
[6] = dose: 400.0 mg/kg/injection, schedule: Q01DX009 (ip), vehicle: saline with Tween-80
[7] = dose: 25.0 mg/kg/injection, schedule: Q01DX009 (ip), vehicle: saline
[8] = dose: 100.0 mg/kg/injection, schedule: Q01DX009 (ip), vehicle: saline with Tween-80
[9] = dose: 25.0 mg/kg/injection, schedule: Q04DX003 (ip), vehicle: saline
[10] = dose: 200.0 mg/kg/injection, schedule: Q04DX003 (ip), vehicle: saline with Tween-80
[11] = dose: 25.0 mg/kg/injection, schedule: Q01DX009 (ip), vehicle: saline with Tween-80
[12] = dose: 50.0 mg/kg/injection, schedule: Q01DX009 (ip), vehicle: saline with Tween-80
[13] = dose: 400.0 mg/kg/injection, schedule: Q04DX003 (ip), vehicle: saline

With `O=S(=O)([O-])[O-].OCCNCCNCC[OH2+].OCCNCCNCC[OH2+].[Ni+2]` the survivor count (dose: 50.0 mg/kg/injection, schedule: Q01DX009 (ip), vehicle: saline) was 5 of 6, the survivor count [1] was 3 of 6 and the survivor count [2] was 0 of 6.

With `C[n+]1c2ccccc2c(Nc2ccc(NS(=O)(=O)CCCCN=C(N)N)cc2)c2ccc(N)cc21` the survivor count (dose: 12.0 mg/kg/injection, schedule: Q01DX009 (ip), vehicle: water) was 10 of 10 and the survivor count (dose: 24.0 mg/kg/injection, schedule: Q01DX009 (ip), vehicle: water) was 3 of 10.

In the case of `CP(c1ccccc1)c1ccccc1`, the T/C [3] is reported as 127 % of control and the T/C [4] is reported as 136 % of control.

In the case of `C1OCC2[CH2][Hg][S][Hg][CH2]C1O2`, the survivor count (dose: 10.0 mg/kg/injection, schedule: Q01DX010 (ip), vehicle: saline) is reported as 0 of 6, the survivor count (dose: 20.0 mg/kg/injection, schedule: Q01DX010 (ip), vehicle: saline) is reported as 0 of 6 and the survivor count (dose: 40.0 mg/kg/injection, schedule: Q01DX010 (ip), vehicle: saline) is reported as 0 of 6. The survivor count (dose: 80.0 mg/kg/injection, schedule: Q01DX010 (ip), vehicle: saline) was 0 of 6.

With `Cc1nc(C(=O)O)c(C)c(=O)[nH]1` the T/C (dose: 12.5 mg/kg/injection, schedule: Q04DX003 (ip), vehicle: water) was 131 % of control, the survivor count (dose: 25.0 mg/kg/injection, schedule: Q04DX003 (ip), vehicle: water) was 3 of 6 and the survivor count (dose: 50.0 mg/kg/injection, schedule: Q04DX003 (ip), vehicle: water) was 2 of 6. The survivor count (dose: 100.0 mg/kg/injection, schedule: Q04DX003 (ip), vehicle: water) was 0 of 6 and the survivor count (dose: 200.0 mg/kg/injection, schedule: Q04DX003 (ip), vehicle: water) was 0 of 6.

`c1ccc2c(NCCCCCCNc3c4ccccc4nc4ccccc34)c3ccccc3nc2c1` was tested, and the survivor count (dose: 10.0 mg/kg/injection, schedule: Q01DX009 (ip), vehicle: lactic acid) was 2 of 6 and the survivor count (dose: 20.0 mg/kg/injection, schedule: Q01DX009 (ip), vehicle: lactic acid) was 4 of 6.

For `CC(C)C1=CC2=C[C@H](O)[C@H]3C(C)(C)CCC[C@]3(C)C2=C(O)C1=O`, the T/C (dose: 5.0 mg/kg/injection, schedule: Q01DX010 (ip), vehicle: other) was 130 % of control, the survivor count (dose: 20.0 mg/kg/injection, schedule: Q01DX010 (ip), vehicle: other) was 1 of 6 and the survivor count (dose: 40.0 mg/kg/injection, schedule: Q01DX010 (ip), vehicle: other) was 0 of 6.

In the case of `N#C/C(=C\c1cc(Cl)cc(Cl)c1O)c1nc2ccccc2[nH]1`, the survivor count [5] is reported as 6 of 6.

With `O=NN(CCCl)C(=O)NC1CCC(NC(=O)N(CCCl)N=O)CC1` (centres undefined) the T/C (dose: 5.5 mg/kg/injection, schedule: Q04DX003 (ip), vehicle: saline with Tween-80) was 141 % of control, the T/C (dose: 8.0 mg/kg/injection, schedule: Q01DX009 (ip), vehicle: saline with Tween-80) was 137 % of control and the survivor count [6] was 6 of 6.

`O=C(/C(=C\c1ccccc1)CN1CCOCC1)c1ccc(Br)cc1` was tested, and the survivor count [3] was 4 of 6.

With `COC(=O)c1ccc(-c2cc(Cl)c3cc(S(=O)(=O)F)ccc3n2)cc1` the survivor count [6] was 6 of 6.

With `O=[N+]([O-])C1(Cl)CCCCC1` the survivor count (dose: 50.0 mg/kg/injection, schedule: Q01DX009 (ip), vehicle: Klucel (hydroxypropylcellulose) (HPC)) was 6 of 6, the survivor count [3] was 0 of 6 and the survivor count [4] was 0 of 6.

With `COC1=NCN=C2SC=C(N)N=C12` the survivor count [1] was 3 of 6.

In the case of `COc1cccc(CC2=NCCc3cc(OC)c(OC)cc32)c1`, the survivor count [7] is reported as 1 of 6, the survivor count [1] is reported as 1 of 6 and the survivor count (dose: 100.0 mg/kg/injection, schedule: Q04DX003 (ip), vehicle: saline) is reported as 5 of 6. The survivor count [2] was 0 of 6.

`C(/C=C\c1ccccc1)=Nc1ccccc1` was tested, and the T/C [8] was 130 % of control.

For `Cn1c(CC(O)(C(F)(F)F)C(F)(F)F)cc2ccccc21`, the survivor count (dose: 200.0 mg/kg/injection, schedule: Q01DX001 (ip), vehicle: other) was 6 of 6.

`CS(=O)(=O)OCCN(CCOS(C)(=O)=O)c1ccccc1` was tested, and the T/C (dose: 25.0 mg/kg/injection, schedule: Q04DX003 (ip), vehicle: saline with Tween-80) was 145 % of control, the T/C [9] was 136 % of control and the T/C (dose: 37.5 mg/kg/injection, schedule: Q04DX003 (ip), vehicle: saline) was 145 % of control. The survivor count (dose: 100.0 mg/kg/injection, schedule: Q04DX003 (ip), vehicle: saline with Tween-80) was 6 of 6, the survivor count [10] was 5 of 6 and the survivor count (dose: 400.0 mg/kg/injection, schedule: Q04DX003 (ip), vehicle: saline with Tween-80) was 0 of 6.

For `CN1CCN(C(=O)Cc2c[nH]c3ccccc23)CC1`, the survivor count (dose: 12.5 mg/kg/injection, schedule: Q01DX009 (ip), vehicle: saline with Tween-80) was 6 of 6, the survivor count [11] was 5 of 6 and the survivor count [10] was 3 of 6.

`FC(F)(F)c1ccc2nc(CI)c(CI)nc2c1` was tested, and the T/C (dose: 3.12 mg/kg/injection, schedule: Q01DX009 (ip), vehicle: saline with Tween-80) was 126 % of control, the T/C (dose: 6.25 mg/kg/injection, schedule: Q01DX009 (ip), vehicle: saline with Tween-80) was 136 % of control and the T/C (dose: 11.8 mg/kg/injection, schedule: Q01DX009 (ip), vehicle: saline) was 140 % of control. For the same compound, the T/C (dose: 18.0 mg/kg/injection, schedule: Q01DX009 (ip), vehicle: saline) was 130 and 131 % of control [4 of 6 alive], the survivor count (dose: 27.0 mg/kg/injection, schedule: Q01DX009 (ip), vehicle: saline) was 0 of 6 and the survivor count (dose: 50.0 mg/kg/injection, schedule: Q04DX003 (ip), vehicle: Klucel (hydroxypropylcellulose) (HPC)) was 0 of 6. For the same compound, the survivor count (dose: 100.0 mg/kg/injection, schedule: Q04DX003 (ip), vehicle: other) was 0 of 6, the survivor count (dose: 200.0 mg/kg/injection, schedule: Q04DX003 (ip), vehicle: other) was 0 of 6 and the survivor count (dose: 400.0 mg/kg/injection, schedule: Q04DX003 (ip), vehicle: other) was 0 of 6.

With `C[Si](C)(C)O/C=C1\CCCCC1=O` the T/C [12] was 126 % of control.

With `c1nnc(NCNc2nncs2)s1` the survivor count (dose: 100.0 mg/kg/injection, schedule: Q01DX010 (ip), vehicle: saline) was 6 of 7, the survivor count [2] was 6 of 6 and the survivor count (dose: 200.0 mg/kg/injection, schedule: Q04DX003 (ip), vehicle: saline) was 6 of 7. For the same compound, the survivor count [13] was 1 of 7.

`COC(=O)C[CH2][Pb]([c]1ccccc1)([c]1ccccc1)[c]1ccccc1` was tested, and the survivor count [8] was 1 of 3.

In the case of `Cc1noc2nccnc12`, the survivor count [8] is reported as 5 of 6.

In the case of `Cc1nc(Cl)c(C(N)=O)nc1C`, the survivor count [12] is reported as 6 of 6, the survivor count [5] is reported as 5 of 6 and the survivor count [6] is reported as 3 of 6.

`C[n+]1ccc(/C=C/c2ccc(Cl)c(Cl)c2)cc1` was tested, and the survivor count (dose: 6.0 mg/kg/injection, schedule: Q01DX009 (ip), vehicle: Klucel (hydroxypropylcellulose) (HPC)) was 5 of 6 and the survivor count (dose: 12.0 mg/kg/injection, schedule: Q04DX003 (ip), vehicle: Klucel (hydroxypropylcellulose) (HPC)) was 4 of 6.

In the case of `CC(=O)CC(C)(C)c1ccccc1`, the T/C [1] is reported as 129 % of control [4 of 6 alive] and the T/C (dose: 400.0 mg/kg/injection, schedule: Q01DX009 (ip), vehicle: saline) is reported as 139 % of control [5 of 6 alive].

In the case of `N=c1cc(-c2ccc(Cl)cc2)ss1`, the T/C [7] is reported as 133 % of control, the survivor count [1] is reported as 5 of 6 and the survivor count [2] is reported as 3 of 6. The survivor count (dose: 300.0 mg/kg/injection, schedule: Q01DX009 (ip), vehicle: saline) was 0 of 6 and the survivor count [13] was 2 of 6.

`O=C(CBr)CC(=O)Nc1ccccc1` was tested, and the survivor count [11] was 3 of 6 and the survivor count [12] was 2 of 6.

`CO[C@@H](C=O)O[C@@H](C=O)CO` was tested, and the T/C (dose: 12.5 mg/kg/injection, schedule: Q01DX009 (ip), vehicle: saline) was 130 % of control, the T/C [9] was 130 % of control and the survivor count [13] was 2 of 6.
